{"sequences": {"note": "By UniProt entry, the sequences of proteins in these tests, tags left out.", "UniProt Q0JBA9, entry or part of it": "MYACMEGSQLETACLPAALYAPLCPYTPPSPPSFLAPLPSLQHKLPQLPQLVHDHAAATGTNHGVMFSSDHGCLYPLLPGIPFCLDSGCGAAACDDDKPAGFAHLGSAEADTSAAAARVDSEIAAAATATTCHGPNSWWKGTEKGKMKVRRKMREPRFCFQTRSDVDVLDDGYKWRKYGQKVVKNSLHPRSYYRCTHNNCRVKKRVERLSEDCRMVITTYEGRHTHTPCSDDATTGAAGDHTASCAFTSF"}, "source": "paper PMC7819943", "about": "“Rice protein-binding microarrays: a tool to detect cis-acting elements near promoter regions in rice”", "note": "The other results are listed elsewhere or left out.", "data": [{"molecular_target": "OsWRKY34 (Oryza sativa, UniProt Q0JBA9 1-250)", "assay": "protein-binding microarray (RPBM); PBS, 2% BSA, 51.3 ng/ul salmon testes DNA, 50 uM zinc acetate, 200 nM TF, 25 C, 1 h; high values mean tight binding", "conditions": "protein: recombinant; tags: N-terminal polyhistidine and DsRed monomer fusion (pET32a); label: CyDye5-dUTP incorporated in the synthesized complementary strand; 3' TTTTT single-stranded linker to array surface; dsDNA, one strand shown", "outline": "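Binding signal is reported as fluorescence intensity per feature (arbitrary units) from an Axon 4000B scanner. Incubation used 200 nM of each Ni–NTA-purified, N-terminally polyhistidine- and DsRed-fused transcription factor from E. coli BL21-CodonPlus on a double-stranded custom Agilent array for 1 h at 25 °C, with 50 µM zinc acetate in the buffer, followed by washing.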", "values": [{"sequence": "GACGGCCGACAAGCTCGGAGACGAAGACAAAGACGGACGACGGAGTCACCTAGTGCAG", "binding signal": "8490 fluorescence intensity (a.u.)"}, {"sequence": "ATGAGAGCTGTTGCACTTGCACACCACTCTCTCGTTCTCTCGGAGTCACCTAGTGCAG", "binding signal": "8990 fluorescence intensity (a.u.)"}, {"sequence": "TCTTCCAGTATCGTACCCGTCCTGTCACAGTAATATGTAACGGAGTCACCTAGTGCAG", "binding signal": "10900 fluorescence intensity (a.u.)"}, {"sequence": "ACCGCTCGCTTCCCACCGGACCGTTCCGAAGCCACCCAACCGGAGTCACCTAGTGCAG", "binding signal": "9460 fluorescence intensity (a.u.)"}, {"sequence": "GAGTAAGTACCCGACCTAGCCCATCGCGTCTGGCCCCACCCGGAGTCACCTAGTGCAG", "binding signal": "9880 fluorescence intensity (a.u.)"}, {"sequence": "ATATTCGTTTTTTTTCTCTCAGTCACATTCTTTTCTTTTCCGGAGTCACCTAGTGCAG", "binding signal": "9430 fluorescence intensity (a.u.)"}, {"sequence": "ACGCCTCATCAGTCATCACCCTCTCAACGCGCGACTCACTCGGAGTCACCTAGTGCAG", "binding signal": "8820 fluorescence intensity (a.u.)"}, {"sequence": "CGATCAAACATACATCCTTCCATTTGTATACACGCTACATCGGAGTCACCTAGTGCAG", "binding signal": "9210 fluorescence intensity (a.u.)"}, {"sequence": "TCTCACATGTTTGACCATTCGTCTTATTCAAAATTTTTATCGGAGTCACCTAGTGCAG", "binding signal": "12100 fluorescence intensity (a.u.)"}, {"sequence": "ACCCGGCGTGTGCGACGTGTGGACTTCTGCAACCCTCTCACGGAGTCACCTAGTGCAG", "binding signal": "8930 fluorescence intensity (a.u.)"}, {"sequence": "CTACCCGCGGTTGCACTCCACCACTCGACCACACGTAGCTCGGAGTCACCTAGTGCAG", "binding signal": "8090 fluorescence intensity (a.u.)"}, {"sequence": "TTCTTTTTTTTCTTTTTCTCCGATTAATGTGGGAATTTCTCGGAGTCACCTAGTGCAG", "binding signal": "9620 fluorescence intensity (a.u.)"}, {"sequence": "CCATACAACTCTACACTCATCCTAAGCGTTTCGTACACATCGGAGTCACCTAGTGCAG", "binding signal": "8740 fluorescence intensity (a.u.)"}, {"sequence": "AATTATTCTCTCTTTTTTTTCTCTCTTGGTATTTCACTCTCGGAGTCACCTAGTGCAG", "binding signal": "8230 fluorescence intensity (a.u.)"}, {"sequence": "TCTTTTACCTGCGTGCCTTCACTCACACTAGCTTGAAACTCGGAGTCACCTAGTGCAG", "binding signal": "9430 fluorescence intensity (a.u.)"}, {"sequence": "CCTGAGACGATCGGATTCCTAACTGCAGCTCATGATTTTACGGAGTCACCTAGTGCAG", "binding signal": "9150 fluorescence intensity (a.u.)"}, {"sequence": "ATGCATGTTCCTTCTTTGTCTTTTTCTTTCCTCAATTCCCCGGAGTCACCTAGTGCAG", "binding signal": "8230 fluorescence intensity (a.u.)"}, {"sequence": "AACACACTTTCGAACACAACCTTAATTTTGAATAGTACCTCGGAGTCACCTAGTGCAG", "binding signal": "8940 fluorescence intensity (a.u.)"}, {"sequence": "TGCTGTCTCCACTCTACTGTACCCAGCCGCCACCGACTCGCGGAGTCACCTAGTGCAG", "binding signal": "8660 fluorescence intensity (a.u.)"}, {"sequence": "ACTTGACTGACTCTTATATTGCTCTTTTGTTTGGAAAATTCGGAGTCACCTAGTGCAG", "binding signal": "8610 fluorescence intensity (a.u.)"}, {"sequence": "GCATTAGATGTTTTATATATCCATTCACATTTACTTTATACGGAGTCACCTAGTGCAG", "binding signal": "10800 fluorescence intensity (a.u.)"}, {"sequence": "ACCACCGCACCCTCGCCATCATCTCACTCTACACACACACCGGAGTCACCTAGTGCAG", "binding signal": "8710 fluorescence intensity (a.u.)"}, {"sequence": "GACTGGTTTTTTTTGCATTCAGGCCCCTTGCCGCCCCAACCGGAGTCACCTAGTGCAG", "binding signal": "9780 fluorescence intensity (a.u.)"}, {"sequence": "ATCTTTCTAACATAAACACTCCATCTGTTCAGCATTTTTACGGAGTCACCTAGTGCAG", "binding signal": "9300 fluorescence intensity (a.u.)"}, {"sequence": "AAGGTATGGTTCTTCATTCTTGTCATTTTCTTTTGCAGCACGGAGTCACCTAGTGCAG", "binding signal": "8220 fluorescence intensity (a.u.)"}, {"sequence": "ATCTTACCTTTCTTCTATAGCTATGTCTAGTTTCTATTTGCGGAGTCACCTAGTGCAG", "binding signal": "8150 fluorescence intensity (a.u.)"}, {"sequence": "CTTCTCGTGCTCTCCCCAAAACCCCGCGCGCCCAATTCACCGGAGTCACCTAGTGCAG", "binding signal": "8310 fluorescence intensity (a.u.)"}, {"sequence": "GCACTAGACCTTCTCTCTTTCAGGATTGATTCCCACTCACCGGAGTCACCTAGTGCAG", "binding signal": "10100 fluorescence intensity (a.u.)"}, {"sequence": "TTTAGGACTTCCGTCATTTTTTCCGTCCGTCTTGATCGTTCGGAGTCACCTAGTGCAG", "binding signal": "8910 fluorescence intensity (a.u.)"}, {"sequence": "AATTTTTTGTTTTGTCAGCTGAGTTCGCGAGCGTTGGATTCGGAGTCACCTAGTGCAG", "binding signal": "8270 fluorescence intensity (a.u.)"}, {"sequence": "ATATGACCCTTTCGGAGCTATTTTTTTCGTGTCATCATGCCGGAGTCACCTAGTGCAG", "binding signal": "9840 fluorescence intensity (a.u.)"}, {"sequence": "ATCTTCTCCTAGGTGCAATCCTGTCTTTCAAAAGAGGCCTCGGAGTCACCTAGTGCAG", "binding signal": "8710 fluorescence intensity (a.u.)"}, {"sequence": "CAGGGCTTCTTTTTGTTATCATGCAACCACCTATTAAACTCGGAGTCACCTAGTGCAG", "binding signal": "10900 fluorescence intensity (a.u.)"}, {"sequence": "TGTAAATACAAATCTTCGCATCTCCACCGTTCATTCTCATCGGAGTCACCTAGTGCAG", "binding signal": "10600 fluorescence intensity (a.u.)"}, {"sequence": "GTTTAAGTTTTTTTTTGGTCAATTGCAGGGTTTATTCAACCGGAGTCACCTAGTGCAG", "binding signal": "8240 fluorescence intensity (a.u.)"}, {"sequence": "CTCATGTGGCATTTTTTGTGGGTCCAAGGACTATATTAACCGGAGTCACCTAGTGCAG", "binding signal": "8740 fluorescence intensity (a.u.)"}, {"sequence": "GCGTTTCCCGTCGTTGGCGTCAAGGTAGCCGCAGGTGCGGCGGAGTCACCTAGTGCAG", "binding signal": "8390 fluorescence intensity (a.u.)"}, {"sequence": "TATCCAACGCGGCATTACCCGGTGCAACGTACGGACATTTCGGAGTCACCTAGTGCAG", "binding signal": "8990 fluorescence intensity (a.u.)"}, {"sequence": "AATACACTGTTTCGCTTATTCCCACGTTAGGCTGGAGCTGCGGAGTCACCTAGTGCAG", "binding signal": "9400 fluorescence intensity (a.u.)"}, {"sequence": "GATCTGCCATCTTTGTATATTAAGTTTTAGTATTCATTAGCGGAGTCACCTAGTGCAG", "binding signal": "8280 fluorescence intensity (a.u.)"}, {"sequence": "CTCCGTTATCGTTTGACTTTCTTTTCATTAATATTTTAAACGGAGTCACCTAGTGCAG", "binding signal": "15600 fluorescence intensity (a.u.)"}, {"sequence": "GGCGCGCGCACGCCGGCCAATCCTACCACATCCCCGGCCTCGGAGTCACCTAGTGCAG", "binding signal": "8850 fluorescence intensity (a.u.)"}]}]}
